PubChem BioAssay AID1259254, NCATS | 2017

Aim: 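Gene knock-downs that lead to re-replication, shown by excess G2 DNA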 (primary screen)
Cells: human HCT116 colorectal cancer cells
Reagents: single siRNA against human genes
Time to read-out: 3 days
Read-out: 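Imaged Hoechst DNA stain sorts each cell into a cycle phase by DNA amount; per plate, G2 fraction set to 0% for non-targeting and 100% for GMNN siRNA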
Direction: G2 robust z-score: higher = more G2 cells, more excess DNA replication
Active means: 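An siRNA counts as active if its G2 robust z-score lies at least 5 MADs above the screen median; here such calls match roughly 38% of GMNN control or more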
In all, the deposit lists about 59,000 reagents; below is an unselected part. In the full data, about 1,550 (2.6%) are marked active. 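G2 share is only a proxy for re-replication; each gene was hit by three separate siRNAs, and active genes were retested.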 Entries without a mark were called inactive. Reagents against one gene are numbered here. Further read-outs or replicates are left out here. The record does not give: the amount of reagent.

gene knocked down	reagent no.	G2 robust z-score
LINC00869 (long independently transcribed non-coding RNA 869)	1	0.0905
LINC00869 (long independently transcribed non-coding RNA 869)	2	-0.968
LINC00869 (long independently transcribed non-coding RNA 869)	3	0.693
DBX1 (developing brain homeobox 1)	1	0.757
DBX1 (developing brain homeobox 1)	2	-0.0525
DBX1 (developing brain homeobox 1)	3	-1.15
BAZ1A (bromodomain adjacent to zinc finger domain 1A)	1	0.617
BAZ1A (bromodomain adjacent to zinc finger domain 1A)	2	-0.813
BAZ1A (bromodomain adjacent to zinc finger domain 1A)	3	-1.36
CDC25C (cell division cycle 25C)	1	0.295
CDC25C (cell division cycle 25C)	2	0.264
CDC25C (cell division cycle 25C)	3	-0.762
FAM86C1P (family with sequence similarity 86 member C1, pseudogene)	1	-0.211
FAM86C1P (family with sequence similarity 86 member C1, pseudogene)	2	-0.292
FAM86C1P (family with sequence similarity 86 member C1, pseudogene)	3	-0.7
KYAT1 (kynurenine aminotransferase 1)	1	2.04
KYAT1 (kynurenine aminotransferase 1)	2	-0.612
KYAT1 (kynurenine aminotransferase 1)	3	3.27
ADD2 (adducin 2)	1	6.09 (active)
ADD2 (adducin 2)	2	0.294
ADD2 (adducin 2)	3	-0.347
IL4R (interleukin 4 receptor)	1	-0.902
IL4R (interleukin 4 receptor)	2	-0.395
IL4R (interleukin 4 receptor)	3	-0.157

Active calls, among the entries above:
gene knocked down	reagent no.	G2 robust z-score
ADD2 (adducin 2)	1	6.09 (active)

Additional entries follow.
gene knocked down	reagent no.	G2 robust z-score
SPHK2 (sphingosine kinase 2)	1	-0.0757
SPHK2 (sphingosine kinase 2)	2	-0.993
SPHK2 (sphingosine kinase 2)	3	-1
TSPY3 (testis specific protein Y-linked 3)	1	-0.433
TSPY3 (testis specific protein Y-linked 3)	2	-0.0653
TSPY3 (testis specific protein Y-linked 3)	3	1.93
SLC6A16	1	0.192
SLC6A16	2	0.156
SLC6A16	3	0.392
TUSC3 (tumor suppressor candidate 3)	1	-0.482
TUSC3 (tumor suppressor candidate 3)	2	-1.05
TUSC3 (tumor suppressor candidate 3)	3	-1.04
HAL (histidine ammonia-lyase)	1	-0.631
HAL (histidine ammonia-lyase)	2	-0.4
HAL (histidine ammonia-lyase)	3	0.732
CLPS (colipase)	1	1.29
CLPS (colipase)	2	1.91
CLPS (colipase)	3	-0.229
HSFX2 (heat shock transcription factor family, X-linked 2)	1	-0.259
HSFX2 (heat shock transcription factor family, X-linked 2)	2	3.8
HSFX2 (heat shock transcription factor family, X-linked 2)	3	-0.323
MFSD8 (major facilitator superfamily domain containing 8)	1	-0.615
MFSD8 (major facilitator superfamily domain containing 8)	2	-0.348
MFSD8 (major facilitator superfamily domain containing 8)	3	-0.149
SYNJ2BP (synaptojanin 2 binding protein)	1	0.322
SYNJ2BP (synaptojanin 2 binding protein)	2	0.0437
SYNJ2BP (synaptojanin 2 binding protein)	3	-0.846
GPR137B (G protein-coupled receptor 137B)	1	-0.884
GPR137B (G protein-coupled receptor 137B)	2	-0.401
GPR137B (G protein-coupled receptor 137B)	3	0.966
N4BP1 (NEDD4 binding protein 1)	1	0.013
N4BP1 (NEDD4 binding protein 1)	2	-0.4
N4BP1 (NEDD4 binding protein 1)	3	3.1
RPL36AP46 (ribosomal protein L36a pseudogene 46)	1	1.64
RPL36AP46 (ribosomal protein L36a pseudogene 46)	2	2.47
RPL36AP46 (ribosomal protein L36a pseudogene 46)	3	-0.086
CDK20 (cyclin dependent kinase 20)	1	-0.157
CDK20 (cyclin dependent kinase 20)	2	-0.293
CDK20 (cyclin dependent kinase 20)	3	1.41
RIBC1 (RIB43A domain with coiled-coils 1)	1	-0.48
RIBC1 (RIB43A domain with coiled-coils 1)	2	-0.172
RIBC1 (RIB43A domain with coiled-coils 1)	3	-0.927
TUBB (tubulin beta class I)	1	2.33
TUBB (tubulin beta class I)	2	1.1
TUBB (tubulin beta class I)	3	1.2
